Drawing on patent CN110317268A, this text covers binding for 1 molecule.

Chains of the proteins cited; added tags and fusions are not shown. Residues count along the entry.
UniProt P0DPI1, residues 872-1296: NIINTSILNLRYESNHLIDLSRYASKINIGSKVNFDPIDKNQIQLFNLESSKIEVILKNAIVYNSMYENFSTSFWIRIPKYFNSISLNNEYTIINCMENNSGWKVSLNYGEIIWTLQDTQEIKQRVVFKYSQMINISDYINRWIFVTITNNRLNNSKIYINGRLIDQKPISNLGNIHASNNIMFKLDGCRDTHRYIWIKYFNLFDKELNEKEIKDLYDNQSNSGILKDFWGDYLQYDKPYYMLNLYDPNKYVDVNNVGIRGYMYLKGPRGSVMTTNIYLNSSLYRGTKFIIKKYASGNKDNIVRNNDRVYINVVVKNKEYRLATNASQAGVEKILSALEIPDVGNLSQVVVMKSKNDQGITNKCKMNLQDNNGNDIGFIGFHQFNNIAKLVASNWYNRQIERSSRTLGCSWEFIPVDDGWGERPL

For this assay, the target named is BoNT/AHc (A型肉毒毒素重链C端) (Clostridium botulinum) (UniProt P0DPI1). Nature of the assay: Western blot, 10 ng BoNT/AHc, BAS45 diluted 1:500. A general note: In western blotting, separated proteins are transferred to a membrane and probed.

Results are given in words; binding and its absence hold for the method and conditions named. Some results given as binding are weak or reduced against the parent protein; the word gives no strength.

B1: 45号抗体 (中和A型肉毒毒素的鼠源单抗) (antibody, V domains shown)
VH: QVHLKESGPGLVAPSQSLSITCTVSGFSLSTYGVHWIRQPPGKGLEWLGVIWAVGSTNYNSALESRLNISKDNSQSQVFLRMTSLQTDDAMYYCASLPYGRFAYWGQGTLVTVSA
VL: SIVMTQTPRFLLVSAGDRITITCKASQNVNNDVAWYQQKPGQSPKLLIYYASNRYTGVPDRFSGSGYGTDFTFTINTVQAEDLAVYSCHQDYSSLTFGAGTKLEIK
As to B1, the binding result was “binds”.
